This is a selection; strong and weak results do not stand in their true shares. At the low end of the ranking the order means little.
Columns and labels:
Experiment in all cases: DAPPL (digital affinity profiling via proximity ligation, sequencing)
Conditions in all cases: 10 mM Tris-HCl pH 7.5, 50 mM NaCl, 1 mM DTT, 4% glycerol, room temperature, 30 min; GST-TFs on glutathione beads, 16-mer random dsDNA library, 0.1% …; high values mean tight binding; double strand, one strand shown; scale: fold enrichment (6-mer frequency, TF over GST control)
FLI1 = target: T1, FLI1 (UniProt Q01543)
T1 sequence: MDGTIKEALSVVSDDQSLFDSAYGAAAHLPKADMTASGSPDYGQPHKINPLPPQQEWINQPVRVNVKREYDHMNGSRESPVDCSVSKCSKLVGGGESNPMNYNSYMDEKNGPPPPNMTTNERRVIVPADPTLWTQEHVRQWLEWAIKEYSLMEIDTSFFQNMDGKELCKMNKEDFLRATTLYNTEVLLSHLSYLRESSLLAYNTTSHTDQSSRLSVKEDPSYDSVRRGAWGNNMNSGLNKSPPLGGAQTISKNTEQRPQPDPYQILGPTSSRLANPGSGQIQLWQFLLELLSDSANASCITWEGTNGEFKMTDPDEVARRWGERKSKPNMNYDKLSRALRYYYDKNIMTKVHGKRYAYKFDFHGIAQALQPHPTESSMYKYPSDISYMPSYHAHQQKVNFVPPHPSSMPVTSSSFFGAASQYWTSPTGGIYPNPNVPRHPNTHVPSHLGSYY

Amino acid sequences for entries named in this document (tags omitted). A change or cut given only in a name is not applied to a line headed by its entry.
UniProt Q01892: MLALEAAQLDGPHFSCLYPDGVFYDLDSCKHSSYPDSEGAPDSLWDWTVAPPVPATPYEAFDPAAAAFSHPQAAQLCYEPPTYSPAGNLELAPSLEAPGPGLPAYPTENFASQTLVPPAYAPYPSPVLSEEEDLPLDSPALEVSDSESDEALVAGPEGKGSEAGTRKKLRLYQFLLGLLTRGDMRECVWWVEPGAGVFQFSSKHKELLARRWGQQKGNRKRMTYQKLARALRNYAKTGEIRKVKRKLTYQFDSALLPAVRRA
UniProt P41161: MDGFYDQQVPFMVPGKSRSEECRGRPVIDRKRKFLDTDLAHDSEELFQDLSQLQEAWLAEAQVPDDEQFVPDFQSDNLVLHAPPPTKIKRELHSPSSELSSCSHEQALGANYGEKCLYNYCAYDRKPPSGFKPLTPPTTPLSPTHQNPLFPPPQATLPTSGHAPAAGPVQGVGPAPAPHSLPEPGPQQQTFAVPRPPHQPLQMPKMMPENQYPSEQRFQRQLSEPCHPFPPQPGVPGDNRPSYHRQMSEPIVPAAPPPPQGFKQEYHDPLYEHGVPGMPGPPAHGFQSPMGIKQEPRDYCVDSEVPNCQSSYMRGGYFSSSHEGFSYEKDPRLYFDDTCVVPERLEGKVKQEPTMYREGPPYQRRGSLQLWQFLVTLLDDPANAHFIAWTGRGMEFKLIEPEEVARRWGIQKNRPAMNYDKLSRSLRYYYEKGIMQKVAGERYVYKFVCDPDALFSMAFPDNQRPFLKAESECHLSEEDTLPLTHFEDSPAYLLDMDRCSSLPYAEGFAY
UniProt Q99607: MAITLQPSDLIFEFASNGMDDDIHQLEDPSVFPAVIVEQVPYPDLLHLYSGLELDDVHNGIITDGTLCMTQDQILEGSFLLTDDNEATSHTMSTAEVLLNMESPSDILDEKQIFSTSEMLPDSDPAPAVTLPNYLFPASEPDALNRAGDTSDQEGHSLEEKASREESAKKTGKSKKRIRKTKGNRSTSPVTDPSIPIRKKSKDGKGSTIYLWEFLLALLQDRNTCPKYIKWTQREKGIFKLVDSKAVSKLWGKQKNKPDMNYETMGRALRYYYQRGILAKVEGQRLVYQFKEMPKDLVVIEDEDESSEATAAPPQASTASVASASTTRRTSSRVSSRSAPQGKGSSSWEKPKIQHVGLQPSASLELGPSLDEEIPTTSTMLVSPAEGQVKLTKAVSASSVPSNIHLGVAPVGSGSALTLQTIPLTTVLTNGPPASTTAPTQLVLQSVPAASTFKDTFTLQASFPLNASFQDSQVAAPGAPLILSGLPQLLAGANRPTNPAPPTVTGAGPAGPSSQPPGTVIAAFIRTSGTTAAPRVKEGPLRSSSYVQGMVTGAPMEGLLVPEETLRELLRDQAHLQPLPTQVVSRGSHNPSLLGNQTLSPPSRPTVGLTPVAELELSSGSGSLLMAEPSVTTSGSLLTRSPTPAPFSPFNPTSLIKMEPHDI

EHF = target: T2, EHF (UniProt Q9NZC4)
T2 sequence: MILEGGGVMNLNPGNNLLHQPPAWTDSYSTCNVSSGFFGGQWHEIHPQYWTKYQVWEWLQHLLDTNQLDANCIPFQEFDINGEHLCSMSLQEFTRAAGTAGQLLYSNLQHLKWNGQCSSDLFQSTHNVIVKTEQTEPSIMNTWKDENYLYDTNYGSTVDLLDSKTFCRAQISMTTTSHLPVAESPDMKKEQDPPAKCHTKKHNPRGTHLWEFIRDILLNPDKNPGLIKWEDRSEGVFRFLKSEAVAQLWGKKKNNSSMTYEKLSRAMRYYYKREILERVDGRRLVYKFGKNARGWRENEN

SPIB = SPIB (UniProt Q01892)
ETV5 = ETV5 (UniProt P41161)
ELF4 = ELF4 (UniProt Q99607)
ETV2 = target: T3, ETV2 (UniProt O00321)
T3 sequence: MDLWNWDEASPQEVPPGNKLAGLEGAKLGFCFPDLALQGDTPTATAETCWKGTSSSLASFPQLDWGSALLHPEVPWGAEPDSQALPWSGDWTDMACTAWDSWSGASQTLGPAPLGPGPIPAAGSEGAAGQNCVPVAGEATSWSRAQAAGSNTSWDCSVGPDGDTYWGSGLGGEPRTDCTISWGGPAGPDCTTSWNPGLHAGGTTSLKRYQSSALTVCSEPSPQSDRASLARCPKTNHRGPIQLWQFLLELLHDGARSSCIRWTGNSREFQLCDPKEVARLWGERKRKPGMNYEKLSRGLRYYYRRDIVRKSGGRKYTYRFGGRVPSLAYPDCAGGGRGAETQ

ETV3L = target: T4, ETV3L (UniProt Q6ZN32)
T4 sequence: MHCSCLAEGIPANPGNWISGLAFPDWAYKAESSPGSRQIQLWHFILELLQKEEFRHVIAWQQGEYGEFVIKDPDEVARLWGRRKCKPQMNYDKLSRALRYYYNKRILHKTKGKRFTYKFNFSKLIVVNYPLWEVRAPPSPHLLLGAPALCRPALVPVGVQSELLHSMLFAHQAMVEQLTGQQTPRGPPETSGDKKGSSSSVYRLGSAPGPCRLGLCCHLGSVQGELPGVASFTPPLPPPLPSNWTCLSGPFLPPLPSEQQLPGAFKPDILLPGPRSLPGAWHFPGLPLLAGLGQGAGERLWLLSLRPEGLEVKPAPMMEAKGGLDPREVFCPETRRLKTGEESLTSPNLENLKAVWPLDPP

Sequence | binding signal (FLI1) | binding signal (EHF) | binding signal (SPIB) | binding signal (ETV5) | binding signal (ELF4) | binding signal (ETV2) | binding signal (ETV3L)
ACCGGT | 0.931 | 0.839 | 0.956 | 0.913 | 0.926 | 0.769 | 0.948
CTGTGG | 0.961 | 0.905 | 0.893 | 0.886 | 0.897 | 0.942 | 0.928
TAAGGG | 1.01 | 0.944 | 0.902 | 0.967 | 0.925 | 0.953 | 0.916
GATCAC | 0.884 | 0.916 | 0.887 | 0.928 | 0.987 | 0.982 | 0.985
TCCAGA | 0.855 | 0.881 | 0.844 | 0.872 | 0.958 | 0.865 | 0.913
AGCACG | 0.968 | 0.901 | 0.91 | 0.845 | 0.9 | 0.919 | 0.891
TAAGAC | 0.882 | 0.817 | 0.844 | 0.923 | 0.919 | 0.93 | 0.823
CAGAAC | 0.893 | 0.885 | 0.91 | 0.891 | 0.921 | 0.893 | 0.912
GGCACC | 0.802 | 0.736 | 0.744 | 0.761 | 0.819 | 0.754 | 0.782
GACCCC | 0.955 | 0.861 | 0.941 | 0.92 | 0.953 | 0.888 | 0.893
GTGGTC | 0.874 | 0.92 | 0.946 | 0.868 | 0.874 | 0.724 | 0.859
TAGTCA | 0.867 | 0.875 | 0.815 | 0.868 | 0.904 | 0.84 | 0.906
GGGCAT | 0.875 | 0.855 | 0.86 | 0.89 | 0.91 | 0.904 | 0.856
ATAGTG | 0.927 | 0.89 | 0.984 | 0.916 | 0.865 | 0.803 | 0.924
TCGAGA | 0.561 | 0.608 | 0.652 | 0.635 | 0.67 | 0.644 | 0.586
TCCAGT | 0.648 | 0.645 | 0.699 | 0.635 | 0.684 | 0.846 | 0.616
TCCAGC | 0.976 |  | 0.948 | 0.972 | 0.964 | 0.949 | 0.993
CGAAGG | 0.911 |  | 0.966 | 1.05 | 0.916 | 0.857 | 0.994
TCATTG | 0.997 |  | 0.937 | 0.957 | 0.965 | 0.948 | 1.04
GTCAAA | 0.92 | 0.891 | 0.922 | 0.922 | 0.951 | 0.948 | 0.922
CCAGCA | 0.939 | 0.943 | 0.927 | 0.893 | 0.922 | 0.931 | 0.896
GGTCCA | 0.948 | 0.964 | 0.859 | 0.902 | 0.948 | 0.874 | 0.893
TGTCGC | 0.858 |  | 0.844 | 0.983 | 0.929 | 0.804 | 0.924

Part of the list above, set out differently:
Sequence	binding signal (FLI1)	binding signal (EHF)	binding signal (SPIB)	binding signal (ETV5)	binding signal (ELF4)	binding signal (ETV2)	binding signal (ETV3L)
TCCAGT	0.648	0.645	0.699	0.635	0.684	0.846	0.616
TCCAGC	0.976		0.948	0.972	0.964	0.949	0.993
CGAAGG	0.911		0.966	1.05	0.916	0.857	0.994
TCATTG	0.997		0.937	0.957	0.965	0.948	1.04
GTCAAA	0.92	0.891	0.922	0.922	0.951	0.948	0.922
CCAGCA	0.939	0.943	0.927	0.893	0.922	0.931	0.896

Source: paper PMC7862700
